Results published in PubChem BioAssay AID743255 (National Center for Advancing Translational Sciences (NCATS), 2014).
“And” between values parts separate entries of the source, which are not always exact repeats. Identical values can stand only once. The campaign covered roughly 390,000 compounds. About 910 (0.23%) were called active. The inconclusive results got no clear call from the source; some entries with a clear call stand among them for comparison. The call rests on the fitted dose curve; in most records, active means well fitted inhibition curve with a large enough effect; inconclusive means small, poorly fitted or top-dose-only effect; inactive means no such curve, though single readings can be large or run the other way. Potencies of inconclusive entries are doubtful fits and often do not repeat.
Further: nearly all actives have a fitted effect of over 60% in size.
On the % scale 0 is the no-effect control and ±100 the full control effect; potency means the concentration at half of the fitted maximal effect.

Chains of the proteins cited; added tags and fusions are not shown. Lines headed by an entry give the natural chain unless they say otherwise; changes in a name come on top.
UniProt O94782: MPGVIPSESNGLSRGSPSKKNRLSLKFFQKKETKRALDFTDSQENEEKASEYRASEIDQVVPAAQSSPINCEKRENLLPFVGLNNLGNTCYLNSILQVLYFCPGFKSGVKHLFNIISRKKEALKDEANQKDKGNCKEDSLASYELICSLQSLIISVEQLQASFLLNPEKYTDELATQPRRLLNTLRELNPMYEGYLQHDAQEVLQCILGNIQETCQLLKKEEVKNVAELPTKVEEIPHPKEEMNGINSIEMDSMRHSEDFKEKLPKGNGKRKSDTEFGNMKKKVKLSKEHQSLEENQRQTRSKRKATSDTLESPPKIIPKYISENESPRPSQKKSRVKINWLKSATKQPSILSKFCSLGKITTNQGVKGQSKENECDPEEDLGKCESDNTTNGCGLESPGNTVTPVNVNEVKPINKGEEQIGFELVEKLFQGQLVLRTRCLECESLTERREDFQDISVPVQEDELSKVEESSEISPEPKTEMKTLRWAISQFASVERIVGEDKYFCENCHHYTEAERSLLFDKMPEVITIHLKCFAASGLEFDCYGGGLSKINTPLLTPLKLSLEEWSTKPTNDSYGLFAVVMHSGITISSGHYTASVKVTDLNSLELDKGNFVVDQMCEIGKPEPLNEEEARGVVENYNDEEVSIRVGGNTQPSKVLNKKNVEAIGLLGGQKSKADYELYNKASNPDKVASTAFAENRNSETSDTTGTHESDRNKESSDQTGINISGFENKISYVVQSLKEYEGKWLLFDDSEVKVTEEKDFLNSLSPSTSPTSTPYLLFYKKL

These molecules were tested against Ubiquitin carboxyl-terminal hydrolase 1 (Homo sapiens) (UniProt O94782) (assay: Inhibitors of USP1/UAF1: Primary Screen). Details: recombinant USP1/UAF1, Ub-Rhodamine cleavage fluorescence; activity change, negative = inhibition: at 57.1 µM (top of the series).
Outline: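 1 nM enzyme complex + cpd, 15 min RT; start with Ub-Rho 150nM final; kinetic fluorescence ex 480/em 540, 6 reads q60 s. Buffer 50mM HEPES pH 7.8, 0.5mM EDTA, 0.1 mg/ml BSA, 1mM TCEP, 0.01% Tween-20.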
In the case of `CN(C(=O)COC(=O)COc1ccc2ccccc2c1)c1ccccc1`, the Potency is reported as inconclusive: 0.251 µM [inhibitor, full curve, poor fit].
`CC(NC(=O)C1CCN(S(=O)(=O)Cc2ccccc2)CC1)c1ccccc1` (stereo not drawn) was tested, and the Potency was inconclusive: 15.8 µM [inhibitor, partial curve].
In the case of `CCCCN1/C(=C/c2ccc3ccccc3[n+]2CC)Sc2ccccc21`, the “activity change, negative = inhibition” value is reported as inactive: -24%.
For `COc1cccc2sc(N(Cc3cccnc3)C(=O)c3ccc4c(c3)OCCO4)nc12`, the Potency was inconclusive: 28.2 µM [inhibitor, partial curve].
With `CCCCCOc1ccc(/C(C)=N/NC2=NCCN2)cc1` the “activity change, negative = inhibition” value was inactive: -15.5%.
With `COc1ccc(NC(=O)C2CCN(S(=O)(=O)c3cccc(-c4noc(C)n4)c3)CC2)cc1OC` the “activity change, negative = inhibition” value was inactive: -7.05%.
`Cc1cc(NC(=O)CCN2CCN(C/C=C/c3ccccc3)CC2)ccc1Br` was tested, and the “activity change, negative = inhibition” value was inactive: -15.7%.
For `CCOc1ccc2[nH]c(O)c(NC(C)=O)c2c1`, the Potency was inconclusive: 0.501 µM [inhibitor, full curve, poor fit].
With `CC(C)(C)c1ccc(-c2nc(C#N)c(NCCCn3ccnc3)o2)cc1` the “activity change, negative = inhibition” value was inactive: 2.38%.
With `CC(CC(F)(F)F)N1CCC(n2nccc2NC(=O)CCCc2ccccc2)CC1` (stereo not drawn) the “activity change, negative = inhibition” value was inactive: -16.8%.
`CO/N=C/c1ccc(N2CCN(C(=O)c3cccc(Cl)c3)CC2)c([N+](=O)[O-])c1` was tested, and the Potency was inconclusive: 11.2 µM [inhibitor, partial curve, poor fit].
With `COc1ccc(Cn2c(CCC(=O)NCc3ccc(Cl)cc3)nc3cccnc32)cc1` the “activity change, negative = inhibition” value was inactive: -17.1%.
In the case of `CCCC(=O)Nc1cccc2c1CCCC2`, the “activity change, negative = inhibition” value is reported as inactive: -5.93%.
In the case of `CCCCCCCC(=O)NNC(=O)Cc1ccccc1`, the “activity change, negative = inhibition” value is reported as inactive: -20.1%.
With `CCC(CNc1cc(OC)cc2cccnc12)NC1CCCCC1` (stereo not drawn) the Potency was inconclusive: 31.6 µM [inhibitor, partial curve].
For `COc1ccc(C(C#N)CCC2OCCO2)cc1OC` (stereo not drawn), the Potency was inconclusive: 6.31 µM [inhibitor, full curve, poor fit].
`COc1ccc(NC(=O)c2sc3nc4c(cc3c2N)CN(Cc2ccccc2)CC4)c(OC)c1` was tested, and the Potency was inconclusive: 0.398 µM [inhibitor, partial curve, poor fit].
In the case of `CN=c1scc(-c2ccc([N+](=O)[O-])cc2)n1/N=C/c1ccco1`, the “activity change, negative = inhibition” value is reported as inactive: -13.7%.
For `Nc1nc(-c2ccccc2)nc2nonc12`, the Potency was inconclusive: 7.08 µM [inhibitor, partial curve].
`Cc1cc(O)c(C(c2cccc(F)c2)N2CCN(c3ccccc3)CC2)c(=O)n1Cc1ccco1` (stereo not drawn) was tested, and the Potency was inconclusive: 35.5 µM [inhibitor, partial curve].
With `COC(=O)c1c(NC(=O)CCCOc2cccc(C)c2)sc2c1CCC2` the “activity change, negative = inhibition” value was inactive: -1.63%.
In the case of `COc1ccc(-c2c(C#N)c(SCC(=O)Nc3ccccc3C)nc(C)c2C(=O)Nc2ccc(Cl)cc2)cc1`, the Potency is reported as inconclusive: 0.199 µM [inhibitor, full curve].
`CC(C)Cn1cc(NC(=O)N2CCN(c3ccccc3F)CC2)c2ccccc2c1=O` was tested, and the Potency was inconclusive: 31.6 µM [inhibitor, partial curve].
For `COC(=O)C1=C(Nc2ccccc2NC(=O)c2ccccc2C(=O)O)CSC1`, the Potency was inconclusive: 44.7 µM [inhibitor, partial curve, poor fit].
With `C[C@H]1CN([C@@H](C)CO)C(=O)Cc2cc(NC(=O)CCN3CCOCC3)ccc2O[C@@H]1CN(C)Cc1ccc(Oc2ccccc2)cc1` the “activity change, negative = inhibition” value was inactive: -1.63%.
With `O=C(CSc1nccn1Cc1ccccc1)NCc1ccccc1Cl` the “activity change, negative = inhibition” value was inactive: -29.5%.
With `O=C(CSc1nc2ccccc2s1)CSc1nc2ccccc2s1` the Potency was inconclusive: 39.8 µM [inhibitor, single point].
For `c1coc(-c2nc3nc4ccccc4n3nc2-c2ccco2)c1`, the Potency was inconclusive: 31.6 µM [inhibitor, partial curve].
`O=C(COC(=O)/C=C/c1ccco1)NCc1ccc(Cl)cc1` was tested, and the “activity change, negative = inhibition” value was inactive: -22%.
In the case of `CC(C)N1CCc2c(sc(NC(=O)c3ccc(S(=O)(=O)N4CCOCC4)cc3)c2C#N)C1`, the Potency is reported as inconclusive: 3.98 µM [inhibitor, full curve, poor fit].
In the case of `O=C(COc1ccc(Cl)cc1)OCc1ccc(Cl)cc1`, the Potency is reported as inconclusive: 7.08 µM [inhibitor, single point].
With `CCOc1cc(/C=C2/C(=O)N(c3ccccc3)N=C2C)ccc1OC(=O)c1cccs1` the “activity change, negative = inhibition” value was inactive: -21.4%.
With `CC(=O)c1cccc(NC(c2ccc(F)cc2)c2nnc(-c3ccccc3)o2)c1` (stereo not drawn) the “activity change, negative = inhibition” value was inactive: -18.7%.
`CCN1CCN(C(c2cccc(F)c2)c2c(O)cc(C)n(Cc3ccco3)c2=O)CC1` (stereo not drawn) was tested, and the Potency was inconclusive: 0.251 µM [inhibitor, full curve, poor fit].
For `Cc1ccccc1CSc1nc2c(sc3ccccc32)c(=O)n1CCCOC(C)C`, the Potency was inconclusive: 5.62 µM [inhibitor, single point].
In the case of `O=c1c(N2CCN(c3cccc(C(F)(F)F)c3)CC2)csc2ccc(Cl)cc12`, the Potency is reported as inconclusive: 0.251 µM [inhibitor, full curve, poor fit].
With `COc1ccc(N=C/C=C2\C=C(c3ccccc3)OC(C)(C)O2)cc1` the Potency was inconclusive: 28.2 µM [inhibitor, partial curve].
`Cc1cc(Cl)nc2ccc(Cc3ccc4nc(Cl)cc(C)c4c3)cc12` was tested, and the Potency was inconclusive: 44.7 µM [inhibitor, partial curve].
In the case of `CCC(C(=O)Nc1cc(-c2nc3cccnc3s2)ccc1C)c1ccccc1` (stereo not drawn), the “activity change, negative = inhibition” value is reported as inactive: 7.75%.
`Cc1ccc(CS(=O)(=O)Cc2ccc(C(=O)NCCCN3CCOCC3)o2)cc1` was tested, and the Potency was inconclusive: 14.1 µM [inhibitor, partial curve].
For `COC(=O)c1c(NC(C)=O)sc(C(=O)Nc2ccccc2OC)c1C`, the Potency was inconclusive: 63.1 µM [inhibitor, single point].
`CCOc1ccc(-c2nnc(SCC(=O)NCc3ccc(C)cc3)nc2-c2ccc(OCC)cc2)cc1` was tested, and the Potency was inconclusive: 0.794 µM [inhibitor, full curve].
With `Cc1cccc(-n2ncc3c(NC4CCCC4)ncnc32)c1` the Potency was inconclusive: 50.1 µM [inhibitor, partial curve, poor fit].
With `CC(C)N(C(=O)Nc1ccc2nsnc2c1)C(C)C` the Potency was active: 6.31 µM.
For `O=c1[nH]cc(Cc2ccccc2)c(=O)[nH]1`, the Potency was inconclusive: 0.1 µM [inhibitor, full curve, poor fit].
In the case of `CC(=O)Nc1cccc(NC(=O)c2c(-c3ccccc3)c(-c3ccccc3)nn(C)c2=O)c1`, the “activity change, negative = inhibition” value is reported as inactive: -25%.
With `C=Cc1c(C)c2cc3[nH]c(cc4nc(cc5nc(cc1[nH]2)C(C)=C5CCC(=O)O)C(CCC(=O)O)=C4C)c(C)c3C=C` the Potency was “inactive and inconclusive: 39.8 µM [inhibitor, partial curve, poor fit]”.
`CCc1ccc(Nc2nc(N)nc(CSc3nc4ccccc4s3)n2)cc1` was tested, and the Potency was inconclusive: 50.1 µM [inhibitor, partial curve, poor fit].
For `CC(C)NS(=O)(=O)c1ccc(OCC(=O)Nc2ccc3c(c2)OCCO3)cc1`, the Potency was inconclusive: 0.562 µM [inhibitor, full curve, poor fit].
For `Oc1ccc(/C=N/Nc2nc(N3CCCCCC3)nc(N3CCCCCC3)n2)c(O)c1`, the “activity change, negative = inhibition” value was inactive: -10.5%.
With `O=C1CCCc2c1cc(C(=O)NC1CCSC1=O)c(=O)n2-c1ccccc1` (stereo not drawn) the “activity change, negative = inhibition” value was inactive: -13.2%.
With `CC(C)[n+]1ccn(C2=C([O-])c3ccccc3C(=O)/C2=N\S(=O)(=O)c2ccccc2)c1` the Potency was inconclusive: 28.2 µM [inhibitor, partial curve].
With `CCOC(=O)c1sc(NC(=O)c2cc(-c3ccc(F)cc3)on2)c(C(=O)OCC)c1C` the Potency was inconclusive: 200 µM [inhibitor, partial curve, poor fit].
For `Cc1ccc(S(=O)(=O)NCCc2ccncc2)cc1C`, the Potency was inconclusive: 44.7 µM [inhibitor, partial curve].
For `Cc1c(O)ccc(-c2[nH]ncc2-c2nc3ccccc3s2)c1O`, the “activity change, negative = inhibition” value was inactive: -19.9%.
`Cc1ccc(CNC(=O)C2CC(c3ccc(C(F)(F)F)cc3)=NO2)o1` (stereo not drawn) was tested, and the Potency was inconclusive: 5.62 µM [inhibitor, full curve, poor fit].
In the case of `COc1cc(OC)cc(C(=O)NCC(=O)OCC(=O)/C=C2/N(C)c3ccccc3C2(C)C)c1`, the Potency is reported as inconclusive: 0.316 µM [inhibitor, full curve].
`C=CCn1c(CSCc2ccc(Cl)cc2Cl)nnc1SCC(=O)Nc1ccc(C(=O)O)cc1` was tested, and the “activity change, negative = inhibition” value was inactive: -7.32%.
`CCOC(=O)C1CCCN(Cc2cc(=O)oc3cc(C)c(C)cc23)C1` (stereo not drawn) was tested, and the Potency was inconclusive: 44.7 µM [inhibitor, partial curve, poor fit].
With `Cc1ccc(O)c(N=Nc2ccccc2)n1` the Potency was inconclusive: 50.1 µM [inhibitor, partial curve, poor fit].
For `CCOc1ccccc1NC(=O)c1nnn(CC(=O)Nc2ccc(OC)c(OC)c2)c1N`, the Potency was inconclusive: 50.1 µM [inhibitor, partial curve, poor fit].
`COc1ccc(C(=O)CCNc2cccc(Cl)c2)cc1` was tested, and the Potency was inconclusive: 7.08 µM [inhibitor, single point].
`CCOc1cc(C(C(=O)NCC2CCCO2)N(C(=O)Cn2nnc3ccccc32)c2ccc(C(C)=O)cc2)ccc1O` (stereo not drawn) was tested, and the “activity change, negative = inhibition” value was inactive: -8.42%.
For `O=[N+]([O-])c1cc(C(F)(F)F)ccc1NCCCCNS(=O)(=O)c1ccc2ccccc2c1`, the Potency was inconclusive: 44.7 µM [inhibitor, partial curve].
In the case of `O=C(Nc1ccc(N2CCOCC2)cc1)C1CC(=O)N(c2ccc(Cl)cc2)C1` (stereo not drawn), the “activity change, negative = inhibition” value is reported as inactive: -2.46%.
`CC1C/C(=C/c2ccncc2)C(=O)/C(=C/c2ccncc2)C1` (stereo not drawn) was tested, and the Potency was inconclusive: 28.2 µM [inhibitor, partial curve].
In the case of `CCOc1ccc(C(=O)c2cc3ccc(O)cc3oc2=O)cc1`, the “activity change, negative = inhibition” value is reported as inactive: -20.2%.
For `CCOC(=O)N1CCC(NC(=O)c2ccc3c(c2)N(Cc2ccc(F)cc2)C(=O)c2ccccc2S3(=O)=O)CC1`, the Potency was inconclusive: 3.98 µM [inhibitor, full curve].
